Literature values in US20080085892A1, “Liquid dosage form of acetaminophen” (priority 2006, published 2008).

In the case of `CC(=O)Nc1ccc(O)cc1` [Acetaminophen, N-(4-hydroxyphenyl)acetamide], the “solubility in water (in words)” value is given as “slightly soluble”.
